This is an account of results in patent publication US11723946B2, “Methods for regulating transcription of multiple genes and expression of multiple targets” (CHINA MEDICAL UNIVERSITY, priority 2014, dated 2023).

The nature of the data set: Fat accumulation in genetic deficient mice with massive abdominal fat. It is filed as in vivo. The procedure: The mice were divided into control group and experimental group. […] In addition, the mice in the control group were peritoneally injections with 100 ul of PBS.
During the treatment period, the body weight and dietary intake of the mice were recorded at the regular time points. After the treatment, the gross views of whole animals were recorded by photographing. In the following, the fat pads of the mice were collected for the measurement of fat pad weight. The histological examination was performed to determine the number and size of the adipocytes in the mice of the both groups. Furthermore, the percentage of body fat was calculated according the formulation: (fat weight/body weight)×100%, and shown in table 4.

B1: present polypeptide: polypeptide comprising the amino acid sequence of SEQ ID No. 1; made by peptide synthesis, recombinant expression or extraction from Momordica charantia (peptide, listed as Artificial synthsis)
chain: SRCQGKSSWPQLVGSTGAAAKAWIERENPRVRAVIIKVGSGATKDFRCDRVRVWVTERGIVARPPTIG
Take B1: for the setting “Experimental mice, 2.5 nmol/kg peritoneal twice a week, 4 weeks, control 0.78 ± 0.22”, the Average dietary intake is reported as 0.88 ± 0.17 g/day/mice. The “dietary intake during the treatment period compared with control group” value (experimental group vs control group, in words) is recorded as “no obvious difference”.
